Data set [1] can be described thus: physchem. To be noted: buffer, pH 6.8.
A short description of data set [2]: physchem. The following applies: octanol/water, pH 7.4.
A further data set in a line: in vivo. The following applies: Sprague-Dawley, rat, brain, iv, 0.5 mg/kg.
Another data set can be described thus: in vitro. To be noted: pig, LLC-PK1.
Data set [3] in a line: physchem. To be noted: buffer, pH 1.2.

Data on one compound can be found in ChEMBL document CHEMBL4321815, “Discovery of an Extremely Potent Thiazine-Based β-Secretase Inhibitor with Reduced Cardiovascular and Liver Toxicity at a Low Projected Human Dose” (J Med Chem, 2019).

SMILES strings stand for the structures. Converted amounts (≈) assume the structure as drawn. A value given as a limit tells only on which side of the number the result lay.

The thermodynamic solubility is solubility found after equilibrating the solid with the medium. Usually logD stands for the decadic logarithm of the distribution of all forms, ionised or not, between an organic phase and buffer at a given pH. For orientation: Papp means a coefficient for how fast a substance crosses the barrier. High values mean ready permeation, low ones poor permeation. Turning to `C[C@H]1SC(N)=N[C@](C)(c2cc(NC(=O)c3cnc(OCF)cn3)ccc2F)[C@H]1F`, the solubility (thermodynamic) at 1 h is 28.2 µg/mL (≈ 66.3 µM) in the data set “physchem [1]” and over 1000 µg/mL in the data set “physchem [3]”. In “physchem [2]”, this compound displayed a logD at 1 h, 10000 µM of 2.4. The same compound showed a Kp at 0.5 h in the data set “in vivo” of 3.3. The Papp in the data set “in vitro” turned out to be 22.7 ×10⁻⁶ cm/s.
